In this experiment the target is CD46 on A549 cells (human (endogenous in A549)) (UniProt P15529). The experiment can be described thus: flow cytometry on cells; A549 cultures infected with CRAD (low MOI, days 3 to 7; or MOI 5 or 50, 12 to 24 hr) or WT adenoviruses (until CPE or day 10); cell surface fiber detected with 4D2 mAb, CAR with RmcB mAb, CD46 with E4.3, J4.48 or MEM-258 mAb; staining on ice. Background: Flow cytometry measures light scatter and fluorescence of single cells or particles in a stream.

Sequences of proteins named here, by UniProt entry; tags and fusion partners are left off. Residues count along the entry.
UniProt P15529, residues 35-392: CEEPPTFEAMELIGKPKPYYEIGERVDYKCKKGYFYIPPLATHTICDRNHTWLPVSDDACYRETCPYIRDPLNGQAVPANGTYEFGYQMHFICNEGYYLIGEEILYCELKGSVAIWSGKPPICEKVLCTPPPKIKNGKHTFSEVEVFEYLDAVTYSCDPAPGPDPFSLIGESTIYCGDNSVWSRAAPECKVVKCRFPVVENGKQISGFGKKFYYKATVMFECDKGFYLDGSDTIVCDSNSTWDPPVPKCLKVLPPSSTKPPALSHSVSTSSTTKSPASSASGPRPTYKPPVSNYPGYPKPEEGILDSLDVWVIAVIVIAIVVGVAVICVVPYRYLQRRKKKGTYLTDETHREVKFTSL
UniProt P35774: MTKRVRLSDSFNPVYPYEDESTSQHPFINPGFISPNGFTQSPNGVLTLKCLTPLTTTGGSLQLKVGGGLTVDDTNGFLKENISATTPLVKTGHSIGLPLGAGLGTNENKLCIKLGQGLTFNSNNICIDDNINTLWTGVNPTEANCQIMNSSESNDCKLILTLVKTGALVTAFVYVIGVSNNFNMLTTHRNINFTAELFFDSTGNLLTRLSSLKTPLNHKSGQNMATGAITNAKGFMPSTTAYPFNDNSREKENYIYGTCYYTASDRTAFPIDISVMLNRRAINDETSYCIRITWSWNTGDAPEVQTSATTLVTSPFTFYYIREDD

Results are given in words; binding and its absence hold for the method and conditions named. Some results given as binding are weak or reduced against the parent protein; the word gives no strength.

Regarding Ad11 fiber (from UniProt P35774 1-325), the binding entry is reported as “binds”.

For the origin of these results see paper PMC2793518.
